From the supplement of paper PMC6078165
± gives the standard deviation of the averaged measurements. The reference is the same well before dosing, and untreated signal decays as well.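 Fibroblast labels name human fibroblasts: mostly primary ones from tissues such as uterus (C12385, HUF), lung (H6013), bone (Hs27A), adrenal (HADF) and skin (WS1), plus mammary HMF and breast cancer-associated Hs343T. The cancer cells are basal-like or mesenchymal-like triple-negative breast cancer lines. The paper calls a changed response a hit when it shifts by more than 3x the replicate standard deviation. The tissue of the other fibroblasts is not given here.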

System: MDAMB468
Assay: relative JC-1 red fluorescence (viability) vs pre-drug, coculture with fibroblast (fraction); higher = more viable cancer cells
Method: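 JC-1 labelled TNBC cells cocultured 1:1 (1,500 cells each) with CellTrace Violet stained primary or stromal fibroblasts in 384-well plates in FluoroBrite medium, treated with one of 42 anticancer drugs at 0.1, 1, 10 or 100 uM. JC-1 red fluorescence (mitochondrial integrity in cancer cells only) was read by plate reader every 8 h for 72 h. Values are normalised to each well's pre-drug value. The stock of one drug was tenfold lower, so its dose labels may be too high.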

CS(=O)(=O)CCNCc1ccc(-c2ccc3ncnc(Nc4ccc(OCc5cccc(F)c5)c(Cl)c4)c3c2)o1 [Lapatinib]
relative JC-1 red fluorescence
Settings | 8 h | 16 h | 24 h | 32 h | 40 h | 48 h | 56 h | 64 h | 72 h
10 µM, coculture fibroblast: C12385 | 0.687 ± 0.015 | 0.5833 ± 0.0057 | 0.548 ± 0.018 | 0.515 ± 0.013 | 0.502 ± 0.015 | 0.50263 ± 0.00042 | 0.506 ± 0.0066 | 0.525 ± 0.027 | 0.55 ± 0.047
10 µM, coculture fibroblast: H6013 | 0.746 ± 0.067 | 0.69 ± 0.11 | 0.669 ± 0.12 | 0.711 ± 0.14 | 0.691 ± 0.14 | 0.697 ± 0.15 | 0.698 ± 0.14 | 0.704 ± 0.14 | 0.736 ± 0.16
10 µM, coculture fibroblast: H6019 | 0.854 ± 0.021 | 0.797 ± 0.054 | 0.81 ± 0.092 | 0.84 ± 0.1 | 0.864 ± 0.12 | 0.846 ± 0.12 | 0.832 ± 0.11 | 0.816 ± 0.11 | 0.813 ± 0.097
10 µM, coculture fibroblast: H6076 | 0.8042 ± 0.0047 | 0.706 ± 0.035 | 0.613 ± 0.0071 | 0.605 ± 0.0074 | 0.575 ± 0.017 | 0.585 ± 0.03 | 0.569 ± 0.035 | 0.561 ± 0.037 | 0.606 ± 0.037
10 µM, coculture fibroblast: H6231 | 0.867 ± 0.031 | 0.902 ± 0.12 | 0.848 ± 0.064 | 0.789 ± 0.13 | 0.8686 ± 0.0038 | 0.869 ± 0.0092 | 0.849 ± 0.015 | 0.863 ± 0.017 | 0.917 ± 0.095
10 µM, coculture fibroblast: HADF | 0.681 ± 0.056 | 0.606 ± 0.063 | 0.561 ± 0.059 | 0.572 ± 0.059 | 0.529 ± 0.071 | 0.526 ± 0.074 | 0.518 ± 0.086 | 0.498 ± 0.067 | 0.485 ± 0.071
10 µM, coculture fibroblast: HCFa | 0.773 ± 0.019 | 0.707 ± 0.071 | 0.701 ± 0.075 | 0.754 ± 0.078 | 0.733 ± 0.068 | 0.756 ± 0.057 | 0.757 ± 0.053 | 0.775 ± 0.05 | 0.794 ± 0.041
10 µM, coculture fibroblast: HCPF | 0.884 ± 0.01 | 0.946 ± 0.071 | 0.934 ± 0.011 | 0.9118 ± 0.0076 | 0.87146 ± 0.00031 | 0.8384 ± 0.0076 | 0.7911 ± 0.0027 | 0.7725 ± 0.0021 | 0.749 ± 0.0081
10 µM, coculture fibroblast: HHSteC | 0.754 ± 0.023 | 0.723 ± 0.0088 | 0.707 ± 0.011 | 0.715 ± 0.014 | 0.684 ± 0.016 | 0.701 ± 0.019 | 0.673 ± 0.0072 | 0.662 ± 0.028 | 0.681 ± 0.034
10 µM, coculture fibroblast: HMF | 0.893 ± 0.023 | 0.962 ± 0.039 | 0.939 ± 0.038 | 0.911 ± 0.018 | 0.834 ± 0.017 | 0.8301 ± 0.0073 | 0.7716 ± 0.0033 | 0.751 ± 0.011 | 0.731 ± 0.017
10 µM, coculture fibroblast: HPFa | 0.819 ± 0.086 | 0.781 ± 0.13 | 0.791 ± 0.14 | 0.797 ± 0.16 | 0.806 ± 0.16 | 0.843 ± 0.17 | 0.833 ± 0.17 | 0.871 ± 0.16 | 0.858 ± 0.061
10 µM, coculture fibroblast: HUF | 0.757 ± 0.024 | 0.627 ± 0.018 | 0.557 ± 0.0056 | 0.529 ± 0.013 | 0.505 ± 0.02 | 0.497 ± 0.026 | 0.511 ± 0.029 | 0.538 ± 0.033 | 0.55 ± 0.04
10 µM, coculture fibroblast: Hs5 | 0.823 ± 0.022 | 0.714 ± 0.031 | 0.59 ± 0.02 | 0.57 ± 0.016 | 0.523 ± 0.025 | 0.505 ± 0.038 | 0.476 ± 0.016 | 0.466 ± 0.013 | 0.4956 ± 0.0028
10 µM, coculture fibroblast: Hs27A | 0.695 ± 0.033 | 0.568 ± 0.043 | 0.509 ± 0.032 | 0.507 ± 0.024 | 0.468 ± 0.019 | 0.475 ± 0.0055 | 0.464 ± 0.0052 | 0.4593 ± 0.0019 | 0.48026 ± 0.00036
10 µM, coculture fibroblast: Hs343T | 0.867 ± 0.1 | 0.7284 ± 0.0048 | 0.73 ± 0.17 | 0.724 ± 0.21 | 0.67 ± 0.22 | 0.717 ± 0.3 | 0.719 ± 0.36 | 0.728 ± 0.37 | 0.713 ± 0.36
10 µM, coculture fibroblast: WS1 | 0.6685 ± 0.0061 | 0.56931 ± 0.00051 | 0.562 ± 0.0088 | 0.5588 ± 0.0043 | 0.544 ± 0.0032 | 0.5287 ± 0.0051 | 0.5437 ± 0.0029 | 0.536 ± 0.0062 | 0.5497 ± 0.0042
100 µM, coculture fibroblast: C12385 | 0.928 ± 0.013 | 0.86211 ± 0.00064 | 0.872 ± 0.0093 | 0.81209 ± 0.00057 | 0.7789 ± 0.0018 | 0.751 ± 0.013 | 0.709 ± 0.0071 | 0.666 ± 0.013 | 0.649 ± 0.0088
100 µM, coculture fibroblast: H6013 | 0.969 ± 0.014 | 0.864 ± 0.18 | 0.9699 ± 0.0073 | 0.9662 ± 0.0048 | 0.9262 ± 0.0085 | 0.917 ± 0.025 | 0.844 ± 0.028 | 0.805 ± 0.015 | 0.736 ± 0.023
100 µM, coculture fibroblast: H6019 | 0.85 ± 0.026 | 0.857 ± 0.023 | 0.823 ± 0.028 | 0.759 ± 0.021 | 0.721 ± 0.027 | 0.7 ± 0.037 | 0.662 ± 0.038 | 0.628 ± 0.028 | 0.596 ± 0.029
100 µM, coculture fibroblast: H6076 | 0.908 ± 0.079 | 0.888 ± 0.099 | 0.782 ± 0.098 | 0.803 ± 0.027 | 0.856 ± 0.16 | 0.823 ± 0.14 | 0.778 ± 0.12 | 0.744 ± 0.13 | 0.762 ± 0.13
100 µM, coculture fibroblast: H6231 | 0.878 ± 0.023 | 0.943 ± 0.026 | 0.934 ± 0.042 | 0.928 ± 0.019 | 0.871 ± 0.057 | 0.864 ± 0.034 | 0.816 ± 0.035 | 0.813 ± 0.026 | 0.80314 ± 0.00076
100 µM, coculture fibroblast: HADF | 0.93 ± 0.039 | 0.924 ± 0.016 | 0.872 ± 0.012 | 0.8681 ± 0.0076 | 0.824 ± 0.01 | 0.8 ± 0.014 | 0.7486 ± 0.0073 | 0.716 ± 0.015 | 0.67 ± 0.0086
100 µM, coculture fibroblast: HCFa | 0.907 ± 0.0033 | 0.925 ± 0.047 | 0.89 ± 0.061 | 0.895 ± 0.056 | 0.847 ± 0.05 | 0.839 ± 0.054 | 0.809 ± 0.063 | 0.786 ± 0.065 | 0.746 ± 0.077
100 µM, coculture fibroblast: HCPF | 0.892 ± 0.014 | 0.975 ± 0.018 | 0.897 ± 0.025 | 0.88 ± 0.013 | 0.8 ± 0.011 | 0.771 ± 0.00084 | 0.736 ± 0.012 | 0.726 ± 0.019 | 0.711 ± 0.027
100 µM, coculture fibroblast: HHSteC | 0.938 ± 0.01 | 0.948 ± 0.061 | 0.936 ± 0.069 | 0.926 ± 0.068 | 0.907 ± 0.064 | 0.925 ± 0.079 | 0.864 ± 0.068 | 0.846 ± 0.065 | 0.808 ± 0.044
100 µM, coculture fibroblast: HMF | 0.9 ± 0.039 | 0.911 ± 0.034 | 0.98 ± 0.025 | 0.932 ± 0.017 | 0.862 ± 0.011 | 0.852 ± 0.0098 | 0.808 ± 0.011 | 0.788 ± 0.023 | 0.764 ± 0.036
100 µM, coculture fibroblast: HPFa | 0.865 ± 0.16 | 0.932 ± 0.026 | 0.892 ± 0.025 | 0.854 ± 0.03 | 0.825 ± 0.038 | 0.823 ± 0.047 | 0.753 ± 0.05 | 0.73 ± 0.055 | 0.655 ± 0.054
100 µM, coculture fibroblast: HUF | 0.943 ± 0.05 | 0.873 ± 0.084 | 0.84 ± 0.09 | 0.786 ± 0.093 | 0.755 ± 0.1 | 0.731 ± 0.12 | 0.696 ± 0.12 | 0.683 ± 0.12 | 0.667 ± 0.12
100 µM, coculture fibroblast: Hs5 | 0.915 ± 0.08 | 0.884 ± 0.13 | 0.9975 ± 0.0033 | 0.97494 ± 0.00026 | 0.8985 ± 0.0082 | 0.885 ± 0.018 | 0.8703 ± 0.0056 | 0.865 ± 0.013 | 0.9013 ± 0.0034
100 µM, coculture fibroblast: Hs27A | 0.8907 ± 0.0089 | 0.898 ± 0.028 | 0.853 ± 0.029 | 0.8741 ± 0.0064 | 0.813 ± 0.016 | 0.796 ± 0.034 | 0.747 ± 0.056 | 0.719 ± 0.06 | 0.694 ± 0.051
100 µM, coculture fibroblast: Hs343T | 0.83 ± 0.089 | 0.843 ± 0.025 | 0.855 ± 0.17 | 0.834 ± 0.18 | 0.768 ± 0.2 | 0.75 ± 0.23 | 0.709 ± 0.22 | 0.693 ± 0.22 | 0.668 ± 0.2
100 µM, coculture fibroblast: WS1 | 0.886 ± 0.0095 | 0.851 ± 0.013 | 0.748 ± 0.076 | 0.794 ± 0.11 | 0.748 ± 0.12 | 0.777 ± 0.19 | 0.759 ± 0.22 | 0.649 ± 0.12 | 0.621 ± 0.12
